Reference: the supplement of paper PMC10849652
Some of the results follow.

Chains of the proteins cited; added tags and fusions are not shown. Lines headed by an entry give the natural chain unless they say otherwise; changes in a name come on top.
UniProt P18850: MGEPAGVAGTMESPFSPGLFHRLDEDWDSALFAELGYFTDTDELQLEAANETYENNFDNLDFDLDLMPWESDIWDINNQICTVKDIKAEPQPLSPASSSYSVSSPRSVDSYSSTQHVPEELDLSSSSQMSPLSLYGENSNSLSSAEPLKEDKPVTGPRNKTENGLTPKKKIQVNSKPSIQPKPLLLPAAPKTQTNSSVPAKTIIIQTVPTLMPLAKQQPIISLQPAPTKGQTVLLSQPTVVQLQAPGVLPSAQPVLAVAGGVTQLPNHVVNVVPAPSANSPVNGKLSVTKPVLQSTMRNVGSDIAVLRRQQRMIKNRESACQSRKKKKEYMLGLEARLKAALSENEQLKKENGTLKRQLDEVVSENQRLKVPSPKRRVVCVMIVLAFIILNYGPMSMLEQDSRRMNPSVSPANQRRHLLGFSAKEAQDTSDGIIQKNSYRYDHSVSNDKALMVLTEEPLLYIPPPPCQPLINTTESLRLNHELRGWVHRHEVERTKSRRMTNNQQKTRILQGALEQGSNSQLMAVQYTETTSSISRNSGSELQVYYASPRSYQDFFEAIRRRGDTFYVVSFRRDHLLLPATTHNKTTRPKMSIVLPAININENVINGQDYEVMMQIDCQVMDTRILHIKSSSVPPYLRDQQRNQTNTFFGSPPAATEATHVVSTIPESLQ
UniProt P18846: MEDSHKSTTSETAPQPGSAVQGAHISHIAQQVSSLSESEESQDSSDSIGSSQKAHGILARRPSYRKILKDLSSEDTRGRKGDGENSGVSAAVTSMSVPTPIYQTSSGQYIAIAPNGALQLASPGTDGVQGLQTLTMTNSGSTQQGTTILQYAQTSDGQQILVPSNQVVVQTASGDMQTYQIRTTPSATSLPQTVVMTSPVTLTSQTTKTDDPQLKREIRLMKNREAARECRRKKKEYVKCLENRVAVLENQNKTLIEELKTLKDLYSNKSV
UniProt Q99941: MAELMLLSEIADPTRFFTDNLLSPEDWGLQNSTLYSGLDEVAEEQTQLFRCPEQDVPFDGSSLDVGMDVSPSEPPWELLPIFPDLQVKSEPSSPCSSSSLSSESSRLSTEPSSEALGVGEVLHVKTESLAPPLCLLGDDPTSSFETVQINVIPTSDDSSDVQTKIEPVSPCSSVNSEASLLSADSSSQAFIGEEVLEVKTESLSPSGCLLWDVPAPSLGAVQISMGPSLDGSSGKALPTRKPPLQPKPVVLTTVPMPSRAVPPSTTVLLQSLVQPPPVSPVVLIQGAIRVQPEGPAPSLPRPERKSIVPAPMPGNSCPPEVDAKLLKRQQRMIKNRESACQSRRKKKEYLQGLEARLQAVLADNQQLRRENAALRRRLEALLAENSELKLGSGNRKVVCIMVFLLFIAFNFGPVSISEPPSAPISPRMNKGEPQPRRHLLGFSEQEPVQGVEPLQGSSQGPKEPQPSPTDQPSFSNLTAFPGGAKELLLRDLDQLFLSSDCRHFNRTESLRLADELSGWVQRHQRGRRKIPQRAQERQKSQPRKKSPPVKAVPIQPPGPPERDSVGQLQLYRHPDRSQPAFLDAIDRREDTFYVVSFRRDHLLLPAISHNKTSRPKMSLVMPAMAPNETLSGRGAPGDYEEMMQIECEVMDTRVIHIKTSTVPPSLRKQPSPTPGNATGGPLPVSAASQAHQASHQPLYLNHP
UniProt Q2TAZ0: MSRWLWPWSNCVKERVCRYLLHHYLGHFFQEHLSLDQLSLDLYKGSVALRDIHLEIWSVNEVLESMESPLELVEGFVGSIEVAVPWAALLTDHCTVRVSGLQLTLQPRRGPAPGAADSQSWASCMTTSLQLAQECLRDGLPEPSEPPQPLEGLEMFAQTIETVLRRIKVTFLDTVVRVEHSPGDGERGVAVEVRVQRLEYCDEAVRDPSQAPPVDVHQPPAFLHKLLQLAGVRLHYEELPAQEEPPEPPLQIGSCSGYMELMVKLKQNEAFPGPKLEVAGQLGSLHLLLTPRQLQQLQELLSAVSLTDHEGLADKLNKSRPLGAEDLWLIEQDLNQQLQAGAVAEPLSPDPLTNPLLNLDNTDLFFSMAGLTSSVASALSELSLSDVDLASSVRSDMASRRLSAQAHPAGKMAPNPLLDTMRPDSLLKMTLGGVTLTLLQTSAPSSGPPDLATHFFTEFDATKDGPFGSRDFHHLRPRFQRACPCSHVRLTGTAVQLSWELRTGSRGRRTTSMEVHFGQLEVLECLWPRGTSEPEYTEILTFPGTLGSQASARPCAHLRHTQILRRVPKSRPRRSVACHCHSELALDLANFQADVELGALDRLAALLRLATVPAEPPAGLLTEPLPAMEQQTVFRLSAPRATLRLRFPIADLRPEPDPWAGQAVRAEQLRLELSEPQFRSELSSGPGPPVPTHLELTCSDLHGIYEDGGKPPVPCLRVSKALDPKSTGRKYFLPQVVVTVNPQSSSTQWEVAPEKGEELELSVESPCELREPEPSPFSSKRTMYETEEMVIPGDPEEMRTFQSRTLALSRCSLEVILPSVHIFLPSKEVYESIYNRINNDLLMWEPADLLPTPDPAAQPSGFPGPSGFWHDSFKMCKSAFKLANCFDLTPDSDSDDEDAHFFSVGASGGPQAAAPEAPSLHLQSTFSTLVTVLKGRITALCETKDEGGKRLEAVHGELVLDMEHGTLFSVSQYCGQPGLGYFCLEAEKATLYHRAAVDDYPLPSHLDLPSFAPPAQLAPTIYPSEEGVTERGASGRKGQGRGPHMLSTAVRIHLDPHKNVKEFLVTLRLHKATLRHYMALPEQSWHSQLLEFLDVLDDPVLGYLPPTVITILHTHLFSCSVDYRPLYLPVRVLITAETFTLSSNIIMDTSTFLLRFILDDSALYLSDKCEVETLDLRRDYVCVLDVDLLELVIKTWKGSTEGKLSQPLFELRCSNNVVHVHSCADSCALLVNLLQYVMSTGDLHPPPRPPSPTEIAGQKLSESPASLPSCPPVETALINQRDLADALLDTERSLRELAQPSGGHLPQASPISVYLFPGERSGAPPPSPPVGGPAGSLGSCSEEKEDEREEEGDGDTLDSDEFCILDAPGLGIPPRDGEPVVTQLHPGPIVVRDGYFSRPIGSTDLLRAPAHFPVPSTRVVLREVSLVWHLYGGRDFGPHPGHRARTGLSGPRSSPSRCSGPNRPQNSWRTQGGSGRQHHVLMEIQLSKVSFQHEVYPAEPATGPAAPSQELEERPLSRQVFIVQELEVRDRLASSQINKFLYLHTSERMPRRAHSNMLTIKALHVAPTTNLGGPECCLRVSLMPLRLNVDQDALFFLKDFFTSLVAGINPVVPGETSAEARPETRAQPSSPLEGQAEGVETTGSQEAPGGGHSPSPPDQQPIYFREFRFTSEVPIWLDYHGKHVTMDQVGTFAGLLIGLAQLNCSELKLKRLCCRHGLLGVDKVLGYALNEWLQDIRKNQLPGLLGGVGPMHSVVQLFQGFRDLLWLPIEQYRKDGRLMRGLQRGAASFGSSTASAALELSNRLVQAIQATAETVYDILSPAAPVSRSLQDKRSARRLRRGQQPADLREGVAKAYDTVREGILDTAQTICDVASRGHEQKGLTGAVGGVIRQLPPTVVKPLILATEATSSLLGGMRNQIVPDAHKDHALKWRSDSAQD
UniProt Q96DX5: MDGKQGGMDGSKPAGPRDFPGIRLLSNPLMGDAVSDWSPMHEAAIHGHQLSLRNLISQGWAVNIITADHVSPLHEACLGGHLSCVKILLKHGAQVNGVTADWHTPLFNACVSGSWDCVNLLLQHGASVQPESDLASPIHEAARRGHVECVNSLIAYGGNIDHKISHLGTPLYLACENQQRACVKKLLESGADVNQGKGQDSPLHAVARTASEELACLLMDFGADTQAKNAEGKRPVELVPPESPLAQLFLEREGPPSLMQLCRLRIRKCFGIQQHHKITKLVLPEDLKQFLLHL
UniProt Q76L83: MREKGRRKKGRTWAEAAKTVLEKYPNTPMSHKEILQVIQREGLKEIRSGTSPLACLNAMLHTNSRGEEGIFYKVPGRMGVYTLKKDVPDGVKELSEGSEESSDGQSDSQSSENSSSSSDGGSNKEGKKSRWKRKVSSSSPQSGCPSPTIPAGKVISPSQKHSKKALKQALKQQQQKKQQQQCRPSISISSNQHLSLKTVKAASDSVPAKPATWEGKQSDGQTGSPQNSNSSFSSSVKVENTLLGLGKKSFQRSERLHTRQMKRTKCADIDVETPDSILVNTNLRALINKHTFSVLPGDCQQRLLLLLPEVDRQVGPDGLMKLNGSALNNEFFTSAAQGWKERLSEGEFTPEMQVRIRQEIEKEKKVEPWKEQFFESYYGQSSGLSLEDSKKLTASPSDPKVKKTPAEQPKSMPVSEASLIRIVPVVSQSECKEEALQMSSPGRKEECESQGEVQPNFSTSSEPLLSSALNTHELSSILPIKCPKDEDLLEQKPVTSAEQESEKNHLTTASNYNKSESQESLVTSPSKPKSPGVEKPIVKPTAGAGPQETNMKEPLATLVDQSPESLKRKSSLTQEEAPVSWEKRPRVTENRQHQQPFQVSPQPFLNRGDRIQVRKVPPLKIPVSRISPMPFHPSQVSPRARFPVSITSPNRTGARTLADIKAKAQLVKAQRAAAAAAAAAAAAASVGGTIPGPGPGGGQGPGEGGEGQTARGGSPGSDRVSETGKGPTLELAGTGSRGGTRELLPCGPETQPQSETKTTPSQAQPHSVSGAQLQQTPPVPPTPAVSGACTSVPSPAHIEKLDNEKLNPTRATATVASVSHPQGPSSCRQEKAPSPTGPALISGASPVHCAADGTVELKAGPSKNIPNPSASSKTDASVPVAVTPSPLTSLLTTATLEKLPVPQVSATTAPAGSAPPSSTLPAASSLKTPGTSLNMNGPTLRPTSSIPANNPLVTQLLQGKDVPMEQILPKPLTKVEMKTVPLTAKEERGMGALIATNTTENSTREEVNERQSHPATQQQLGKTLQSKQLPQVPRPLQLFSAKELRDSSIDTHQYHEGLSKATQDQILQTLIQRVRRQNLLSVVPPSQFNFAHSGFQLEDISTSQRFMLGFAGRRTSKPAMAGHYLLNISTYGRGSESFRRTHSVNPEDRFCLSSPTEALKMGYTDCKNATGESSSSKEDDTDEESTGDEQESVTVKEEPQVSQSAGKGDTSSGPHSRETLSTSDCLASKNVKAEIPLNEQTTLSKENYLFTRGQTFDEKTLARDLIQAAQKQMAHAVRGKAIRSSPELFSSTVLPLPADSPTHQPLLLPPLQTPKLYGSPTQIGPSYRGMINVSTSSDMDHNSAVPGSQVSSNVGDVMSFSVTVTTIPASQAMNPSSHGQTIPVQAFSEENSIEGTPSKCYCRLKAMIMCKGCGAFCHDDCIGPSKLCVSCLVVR
UniProt P98194: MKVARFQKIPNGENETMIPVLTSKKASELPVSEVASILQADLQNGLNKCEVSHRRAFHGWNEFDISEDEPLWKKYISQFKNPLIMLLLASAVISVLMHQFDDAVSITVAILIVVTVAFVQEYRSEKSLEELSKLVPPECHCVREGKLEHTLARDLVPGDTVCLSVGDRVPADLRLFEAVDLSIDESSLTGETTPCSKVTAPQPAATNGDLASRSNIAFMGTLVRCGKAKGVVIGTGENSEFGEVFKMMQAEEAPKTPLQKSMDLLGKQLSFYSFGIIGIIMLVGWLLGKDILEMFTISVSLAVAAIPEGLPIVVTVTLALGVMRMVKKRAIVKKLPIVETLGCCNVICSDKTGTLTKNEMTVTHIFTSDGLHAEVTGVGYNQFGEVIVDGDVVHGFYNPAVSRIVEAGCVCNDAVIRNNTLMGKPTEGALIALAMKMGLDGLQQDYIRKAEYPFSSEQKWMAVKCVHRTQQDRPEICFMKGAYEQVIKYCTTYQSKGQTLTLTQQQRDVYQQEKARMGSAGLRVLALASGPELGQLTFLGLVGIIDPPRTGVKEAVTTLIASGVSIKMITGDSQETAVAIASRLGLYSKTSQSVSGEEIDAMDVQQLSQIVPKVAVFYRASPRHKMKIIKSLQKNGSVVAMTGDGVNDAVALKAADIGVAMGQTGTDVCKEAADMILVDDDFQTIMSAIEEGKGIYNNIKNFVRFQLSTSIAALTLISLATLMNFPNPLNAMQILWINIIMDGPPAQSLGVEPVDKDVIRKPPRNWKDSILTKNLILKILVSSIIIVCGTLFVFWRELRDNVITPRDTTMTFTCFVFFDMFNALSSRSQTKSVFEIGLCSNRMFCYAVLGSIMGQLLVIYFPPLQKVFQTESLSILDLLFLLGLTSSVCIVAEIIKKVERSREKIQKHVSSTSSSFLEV

Legend:
Assay in all cases: log2 fold change, soluble protein after heating vs DMSO (PISA); higher = thermal stabilisation; K562 lysate, 10 uM; active = over 0.2 and 3.5 SD of the protein, either way, in both replicates (recomputed)
[1] = compound: CCCS(=O)(=O)Nc1ccc(F)c(C(=O)c2c[nH]c3ncc(Cl)cc23)c1F
Procedure, shortened: (§1)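 To prepare the extract, K562 pellets were dounce-homogenised in PBS pH 7.4 with 1 mM MgCl2, giving crude material at 1 mg/mL protein. This was treated with 10 μM compound for 30 min, then heated in aliquots for 3 min over 48°C-58°C before pooling and addition of NP-40 to 0.5% at 4°C. Centrifugation at 21,000xg for 90 min left soluble protein in the supernatant, which TMTpro 16plex LC-MS/MS quantified with equalised channel sums. Results are log-two fold changes in thermal stability compared with solvent controls, from duplicates.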

barasertib = compound: CCN(CCCOc1ccc2c(Nc3cc(CC(=O)Nc4cccc(F)c4)[nH]n3)ncnc2c1)CCOP(=O)(O)O [barasertib]
Procedure, shortened: as §1

[2] = compound: CC[C@@H]1C(=O)N(C)c2cnc(Nc3ccc(C(=O)NC4CCN(C)CC4)cc3OC)nc2N1C1CCCC1
Procedure, shortened: as §1

volasertib = compound: CC[C@@H]1C(=O)N(C)c2cnc(Nc3ccc(C(=O)N[C@H]4CC[C@H](N5CCN(CC6CC6)CC5)CC4)cc3OC)nc2N1C(C)C [volasertib]
Procedure, shortened: as §1

encorafenib = compound: COC(=O)N[C@@H](C)CNc1nccc(-c2cn(C(C)C)nc2-c2cc(Cl)cc(NS(C)(=O)=O)c2F)n1 [encorafenib]
Procedure, shortened: as §1

[3] = compound: COC(=O)[C@H](CCSC)NC(=O)C1=C(C=C(C=C1)NC[C@H](CS)N)C2=CC=CC=C2
Procedure, shortened: as §1

alisertib = compound: COc1cc(Nc2ncc3c(n2)-c2ccc(Cl)cc2C(c2c(F)cccc2OC)=NC3)ccc1C(=O)O [alisertib]
Procedure, shortened: as §1

[4] = compound: COc1cc2nc(-c3cc(F)ccc3O)nc(N[C@@H]3CNC[C@H]3C(C)(C)O)c2cc1OC
Procedure, shortened: as §1

gefitinib = compound: COc1cc2ncnc(Nc3ccc(F)c(Cl)c3)c2cc1OCCCN1CCOCC1 [gefitinib]
Procedure, shortened: as §1

[5] = compound: CCn1c(C(=O)N(C2CC2)C2CC2)cc2c3c(ncn3C)c(Nc3cc(C)n(C)n3)nc21
Procedure, shortened: as §1

Tubastatin A = compound: CN1CCc2c(c3ccccc3n2Cc2ccc(C(=O)NO)cc2)C1 [Tubastatin A]
Procedure, shortened: as §1

[6] = compound: CNC(=O)C1=CC=CC=C1NC2=NC(=NC=C2Cl)NC3=C(C=C(C=C3)N4CCOCC4)OC
Procedure, shortened: as §1

[7] = compound: CCn1cc(-c2ccnc3[nH]c(-c4cccc(CN(C)C)c4)cc23)c(-c2ccc(NC(=O)N(C)C)cc2)n1
Procedure, shortened: as §1

[8] = compound: CN1CCC(CNc2ccc3ncc(-c4cccc(OC(F)(F)F)c4)n3n2)CC1
Procedure, shortened: as §1

saracatinib = compound: CN1CCN(CCOc2cc(OC3CCOCC3)c3c(Nc4c(Cl)ccc5c4OCO5)ncnc3c2)CC1 [saracatinib]
Procedure, shortened: as §1

sotrastaurin = compound: CN1CCN(c2nc(C3=C(c4c[nH]c5ccccc45)C(=O)NC3=O)c3ccccc3n2)CC1 [sotrastaurin]
Procedure, shortened: as §1

alvocidib = compound: CN1CC[C@H](c2c(O)cc(O)c3c(=O)cc(-c4ccccc4Cl)oc23)[C@H](O)C1 [alvocidib]
Procedure, shortened: as §1

[9] = compound: CNc1nc(-c2ccc3c(N)n[nH]c3c2)cc(N2C[C@@H](C(=O)NC3CCCCC3)CC[C@H]2C)n1
Procedure, shortened: as §1

Measured: log2 fold change

ATP5F1B (UniProt F8W079)
inactive: [1] -0.21 | barasertib 0.134 | [2] -0.214 | volasertib 0.045 | encorafenib -0.129 | [3] 0.033 | alisertib 0.1 | [4] -0.063 | gefitinib -0.051

ATF6 (UniProt P18850)
inactive: [2] -0.067 | [5] 0.05 | Tubastatin A 0.055 | [6] 0.133 | encorafenib -0.103 | [3] -0.148

ATF1 (UniProt P18846)
inactive: [1] 0.015 | barasertib -0.05 | [2] 0.084 | volasertib 0.004 | [5] 0.021 | [7] -0.038 | [8] -0.006 | saracatinib -0.075 | sotrastaurin -0.002 | alvocidib -0.063 | Tubastatin A 0.035 | [6] -0.028 | [9] -0.006 | encorafenib 0.161 | [3] -0.037 | alisertib -0.034 | [4] 0.024 | gefitinib 0

ATF6B (UniProt Q99941)
inactive: sotrastaurin 0.004

ATXN2 (UniProt F8WB06)
inactive: saracatinib -0.088 | [9] -0.09

ATG2A (UniProt Q2TAZ0)
inactive: [1] -0.018 | barasertib 0.182 | volasertib -0.069 | [5] -0.009 | Tubastatin A -0.074 | [6] -0.066 | alisertib -0.108 | [4] 0.205 | gefitinib -0.212

ASB9 (UniProt Q96DX5)
inactive: [1] -0.151 | volasertib 0.055 | [6] 0.095 | [4] 0.14

ATG4D (UniProt Q86TL0)
inactive: barasertib -0.074 | [2] 0.055 | [5] 0.116 | saracatinib -0.188 | sotrastaurin 0.058 | Tubastatin A -0.09 | [9] -0.008 | encorafenib -0.031 | [3] -0.155

ASXL2 (UniProt Q76L83)
inactive: [1] -0.023 | barasertib 0.001 | volasertib 0 | [5] 0.066 | [7] -0.01 | [8] -0.084 | saracatinib 0.031 | sotrastaurin -0.256 | alvocidib 0.1 | Tubastatin A -0.153 | [6] 0.013 | [9] 0.051 | [4] 0.056

ATP2C1 isoform 3 (UniProt P98194)
inactive: [5] -0.06 | [7] 0.054 | [8] 0.035 | alvocidib -0.06 | Tubastatin A 0.005 | [6] 0.007

ATP1B1 (UniProt P05026)
inactive: [1] 0.011 | barasertib -0.043 | volasertib 0.026 | [5] -0.004 | [7] 0.222 | [8] -0.021 | saracatinib -0.008 | sotrastaurin 0.005 | alvocidib 0.03 | Tubastatin A -0.041 | [6] -0.044 | [9] -0.036 | alisertib 0.033 | [4] 0.06 | gefitinib -0.019

ATP11C, A0A067XG54
inactive: [1] -0.066 | barasertib 0.054 | volasertib -0.259 | [5] -0.092 | [7] -0.157 | [8] 0.103 | saracatinib 0.147 | sotrastaurin 0.039 | alvocidib -0.058 | Tubastatin A -0.055 | [6] -0.128 | [9] -0.105 | [4] -0.02

ASB16 (UniProt Q96NS5)
inactive: [1] 0.039 | volasertib 0.069 | saracatinib 0.139 | sotrastaurin 0.009 | [9] 0.196 | [4] 0.118

Retrieved one by one from above, 2 records:
ASB16 (UniProt Q96NS5)
inactive: [1] 0.039 | volasertib 0.069 | saracatinib 0.139 | sotrastaurin 0.009 | [9] 0.196 | [4] 0.118

ATP5F1B (UniProt F8W079)
inactive: [1] -0.21 | barasertib 0.134 | [2] -0.214 | volasertib 0.045 | encorafenib -0.129 | [3] 0.033 | alisertib 0.1 | [4] -0.063 | gefitinib -0.051

Following part.

B3GALNT2 (UniProt Q8NCR0)
inactive: [1] -0.137 | volasertib 0.102 | [5] 0.043 | saracatinib -0.076 | sotrastaurin 0.073 | Tubastatin A 0.052 | [9] -0.087 | alisertib -0.046 | [4] -0.163 | gefitinib 0.161
